# Results reported in PubChem BioAssay AID2685 (National Center for Advancing Translational Sciences (NCATS), 2010).
# Among all 320,000 compounds or so, about 2,100 (0.66%) were called active. Inconclusive means that the source gave no clear call. Such entries were picked first, then a sample of the others. The call rests on the fitted dose curve; in most records, active means well fitted inhibition curve with a large enough effect in the signal ratio, with a control signal flat (not every such curve was filed as active); inconclusive means small, poorly fitted or top-dose-only effect, or effect the other way, or a change in a side signal; inactive means flat fitted curve, though single readings scatter; the % refers to the signal ratio. Potencies beside an inconclusive call are fits to weak or partial responses and may not hold up.
# Experiment: qHTS Assay for Lipid Storage Modulators in Drosophila S3 Cells
# Details: BODIPY lipid droplet fluorescence, 18-24 h, cells fed with added oleic acid; lipid storage change, negative = inhibition: at 46.1 µM (top of the series) unless noted
# In short: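 Laser-scanning cytometry quantifies lipid droplet accumulation (500–530 nm total intensity; droplet/cell object ratio) in oleic acid-fed (400 uM added) Drosophila S3 cells treated with a concentration series. 20 uM Triacsin C defined 100% inhibition.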
# On the % scale 0 is the no-effect control and ±100 the full control effect; potency means the concentration at half of the fitted maximal effect.
SMILES,"lipid storage change, negative = inhibition",Potency
COc1cc(C(=O)N/N=C/c2sc(=O)n(-c3ccccc3)c2Cl)cc(OC)c1OC,inconclusive: 15%,–
O=C(NCc1ccncc1)C(=O)NCc1ccncc1,–,"inconclusive: 0.461 µM [falling, full curve]"
O=C(CCc1nc2ccccc2c(=O)[nH]1)NNC(=O)c1ccc(Cl)cc1,inconclusive: 27.6%,–
O=S(=O)(c1ccccc1)c1cnc(-c2ccccc2)nc1N1CCCC1,inconclusive: 24.7%,–
CC1CCCCN1C(=O)COC(=O)c1ccc2ccccc2n1 (configuration not stated),inconclusive: 8.54%,–
CCCCOC(=O)c1ccc(NC(=S)NC(=O)c2ccco2)cc1,–,"inconclusive: 29.1 µM [falling, single point]"
COc1ccccc1N1CCN(C2CCCN(C(=O)c3cccc(-c4ccco4)c3)C2)CC1 (configuration not stated),inconclusive: -15.7%,–
COCCCn1c(=O)c2sccc2n2c(CCCC(=O)N3CCN(c4ccccn4)CC3)nnc12,–,"inconclusive: 4.11 µM [falling, single point]"
O=[N+]([O-])c1ccccc1/C=C/CN1CCN(Cc2ccc3c(c2)OCO3)CC1,–,"inconclusive: 29.1 µM [activator, single point]"
O=C(N/N=C/c1ccco1)c1cc(-c2ccc(Cl)cc2)n[nH]1,inconclusive: -4.07%,–
Cc1csc(SCC(=O)N(C)c2c(N)n(Cc3ccccc3)c(=O)[nH]c2=O)n1,–,"inconclusive: 0.146 µM [rising, single point]"
Cc1nc(-c2ccc(Cl)cc2)sc1C(=O)NN,inconclusive: 25.1%,–
O=C(NNc1nc2ccc(F)cc2s1)c1cccc(F)c1,inconclusive: 11.4%,–
Cc1ccc(NC(=O)Nc2ccccc2CC[N+](=O)[O-])cc1,inconclusive: 51.9%,–
COC(=O)c1ccc(N)cc1O,inconclusive: -3.25%,–
CCOc1ccc(NC(=O)NC2CCCCCCC2)cc1,–,"inconclusive: 29.1 µM [falling, single point]"
Cc1[nH]c2ccccc2c1C(=O)CSc1ccccc1,inconclusive: -29.7%,–
COc1ccc(-c2cn(Cc3ccc(C(N)=O)cc3)c(-c3ccc(Cl)nc3)n2)cc1,–,"inconclusive: 29.1 µM [activator, single point]"
O=C(Nc1nnc(-c2ccco2)o1)c1ccc([N+](=O)[O-])s1,inconclusive: -27.7% [at 9.22 µM],–
CC(C)n1nc(C(=O)Nc2ccccc2N2CCOCC2)c2ccccc2c1=O,inconclusive: -11.8%,–
O=C(Nc1cccc(Cl)c1)N1CCc2ccccc2C1,inconclusive: -26.3%,–
CCOC(=O)N1CCC(NC(=O)CC2C(=O)NCCN2Cc2cccc(F)c2F)CC1 (configuration not stated),–,"inconclusive: 6.51 µM [falling, single point]"
CCOc1ccccc1CNc1ccc(O)cc1,–,"inconclusive: 29.1 µM [cytotoxic, single point]"
Cc1ccc(C)c(NC(=S)N(Cc2cccc(Br)c2)CC2CCC(C(=O)O)CC2)c1 (configuration not stated),inconclusive: 12.3%,–
C=CCOc1ccc2nnc(C)n2n1,inconclusive: -2.56%,–
O=C(/C=C/c1ccc(F)cc1)OCC(=O)c1ccc[nH]1,inconclusive: -12.3%,–

SMILES,"lipid storage change, negative = inhibition",Potency
COc1ccc(C2(NC(C)=O)CCN(C(=O)CCC(=O)O)CC2)cc1,–,"inconclusive: 29.1 µM [falling, single point]"
O=C(CCn1cnc2ccccc21)N/N=C/c1ccc(O)cc1,inconclusive: 37%,–
Cc1cc(C)cc(NC(=O)c2ccc([N+](=O)[O-])o2)c1,inactive: -20.6%,–
CC(C)N(C(=O)COC(=O)c1ccc([N+](=O)[O-])cc1)c1ccccc1,–,"inconclusive: 4.11 µM [activator, single point]"
O=C(COC(=O)c1cnccn1)c1ccc(Br)cc1,inconclusive: 119%,–
Cc1ccc(NC(=O)CN(C)CC(=O)NC2CCCc3ccccc32)cc1 (configuration not stated),inconclusive: 24.9%,–
COc1ccccc1N1C(=O)c2ccc(C(=O)Nc3ccc(F)cc3)cc2C1=O,inconclusive: -59.2%,–
Cc1ccc(NC(=O)CN(C)C(=O)CCSc2ccc(F)cc2)cc1,inconclusive: -7.77%,–
O=C(NNS(=O)(=O)c1ccc(CCCl)cc1)C(O)(c1ccccc1)c1ccccc1,inconclusive: 13.6%,–
Cc1ccc(S(=O)(=O)N2CCc3c2cc([N+](=O)[O-])cc3[N+](=O)[O-])cc1,inactive: 9.86%,–
CS(=O)(=O)N1CCC(C(=O)Nc2ccc3c(c2)OCCO3)CC1,inconclusive: -19.3%,–
CC(C)(C)NC(=O)C1CCC(CNS(=O)(=O)c2cccc3nsnc23)CC1 (configuration not stated),–,active: 18.4 µM
COc1ccc(OC)c(NC(=O)c2oc3ccccc3c2NC(=O)C2CC2)c1,inconclusive: 3.29%,–
Cc1ccc(-c2csc3ncnc(SCC(=O)NCC4CCCO4)c23)cc1 (configuration not stated),–,"inconclusive: 0.206 µM [falling, full curve, poor fit]"
CC1CCC2(CC1)NC(=O)N(CC(=O)NC(=O)Nc1ccc3c(c1)OCCO3)C2=O (configuration not stated),inactive: 2.79%,–
CNc1oc(-c2cccs2)nc1S(=O)(=O)c1ccccc1,inconclusive: 140%,–
O=C(CSc1nc2[nH]c(=O)cc(O)c2s1)Nc1ccc(Br)cc1,inconclusive: 2.28%,–
O=C(CSc1nnc(CNC(=O)c2cccc(C(F)(F)F)c2)o1)NCc1ccco1,inconclusive: 260%,–
CNC(=S)N(CCc1c(C)[nH]c2ccc(C)cc12)Cc1ccc(OC)c(OC)c1,–,"inconclusive: 0.411 µM [activator, full curve]"
COc1ccccc1CCC(=O)Oc1ccccc1C#N,inconclusive: 39.7%,–
Nc1ccc(-c2n[nH]c(=O)c3ccccc23)cc1N,inconclusive: 43.1%,–
COCCCNC(=O)CS(=O)Cc1nc(-c2ccccc2C)oc1C (configuration not stated),inactive: 5.85%,–
Cc1onc(-c2c(Cl)cccc2Cl)c1C(N)=S,inconclusive: 10.5%,–
Cc1cc(C)c(C)c(S(=O)(=O)N2CCN(C(=O)c3ccccn3)CC2)c1C,–,"inconclusive: 29.1 µM [activator, single point]"
NCC(c1ccccc1)c1c[nH]c2ccccc12 (configuration not stated),inconclusive: -34.6% [at 0.00295 µM],–
CCOc1ccc2nc(N(CCN(C)C)C(=O)c3cc4ccccc4cc3OC)sc2c1,–,"inconclusive: 16.4 µM [rising, single point]"

# Nothing new here: two of the compounds above.
SMILES,"lipid storage change, negative = inhibition",Potency
Cc1ccc(NC(=O)CN(C)C(=O)CCSc2ccc(F)cc2)cc1,inconclusive: -7.77%,–
O=C(NNS(=O)(=O)c1ccc(CCCl)cc1)C(O)(c1ccccc1)c1ccccc1,inconclusive: 13.6%,–
